Experimental data reported in the supplement of paper PMC11006884.
Only a part is listed here, and it is no random draw. The data scatter; read single values as rough.

Chains of the proteins cited; added tags and fusions are not shown. Lines headed by an entry give the natural chain unless they say otherwise; changes in a name come on top.
UniProt Q99704: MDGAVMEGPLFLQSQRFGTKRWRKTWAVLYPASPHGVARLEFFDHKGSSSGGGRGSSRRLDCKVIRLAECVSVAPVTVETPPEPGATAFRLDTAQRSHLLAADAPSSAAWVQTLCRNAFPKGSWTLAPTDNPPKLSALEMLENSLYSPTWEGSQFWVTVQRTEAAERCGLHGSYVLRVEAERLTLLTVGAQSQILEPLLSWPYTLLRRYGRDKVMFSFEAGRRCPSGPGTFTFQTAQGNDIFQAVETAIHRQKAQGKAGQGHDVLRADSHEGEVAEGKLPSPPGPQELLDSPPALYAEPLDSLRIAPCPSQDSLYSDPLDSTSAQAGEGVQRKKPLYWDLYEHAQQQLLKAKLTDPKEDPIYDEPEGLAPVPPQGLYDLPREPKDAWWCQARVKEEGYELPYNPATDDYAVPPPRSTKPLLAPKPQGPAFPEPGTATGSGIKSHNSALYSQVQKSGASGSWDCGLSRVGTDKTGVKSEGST
UniProt Q96IW7: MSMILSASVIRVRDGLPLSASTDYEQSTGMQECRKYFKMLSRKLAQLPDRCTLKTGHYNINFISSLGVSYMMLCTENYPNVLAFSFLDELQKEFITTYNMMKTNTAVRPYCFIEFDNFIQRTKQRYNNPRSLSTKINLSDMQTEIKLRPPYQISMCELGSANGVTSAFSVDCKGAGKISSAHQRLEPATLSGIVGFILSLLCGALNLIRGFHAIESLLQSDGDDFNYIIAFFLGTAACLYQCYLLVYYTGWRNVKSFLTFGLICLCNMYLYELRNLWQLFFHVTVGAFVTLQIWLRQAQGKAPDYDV
UniProt Q96P11: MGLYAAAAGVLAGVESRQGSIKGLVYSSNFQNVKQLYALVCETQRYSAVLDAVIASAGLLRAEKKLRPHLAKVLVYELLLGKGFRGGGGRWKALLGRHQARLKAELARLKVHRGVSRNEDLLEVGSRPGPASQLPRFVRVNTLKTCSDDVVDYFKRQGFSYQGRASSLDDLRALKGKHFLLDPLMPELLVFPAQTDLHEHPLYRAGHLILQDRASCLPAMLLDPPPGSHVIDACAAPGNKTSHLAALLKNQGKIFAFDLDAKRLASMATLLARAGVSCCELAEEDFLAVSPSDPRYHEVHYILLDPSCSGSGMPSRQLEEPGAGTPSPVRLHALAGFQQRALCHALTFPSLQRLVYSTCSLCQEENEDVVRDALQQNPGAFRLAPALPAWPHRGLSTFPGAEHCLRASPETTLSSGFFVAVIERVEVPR
UniProt Q96RU2: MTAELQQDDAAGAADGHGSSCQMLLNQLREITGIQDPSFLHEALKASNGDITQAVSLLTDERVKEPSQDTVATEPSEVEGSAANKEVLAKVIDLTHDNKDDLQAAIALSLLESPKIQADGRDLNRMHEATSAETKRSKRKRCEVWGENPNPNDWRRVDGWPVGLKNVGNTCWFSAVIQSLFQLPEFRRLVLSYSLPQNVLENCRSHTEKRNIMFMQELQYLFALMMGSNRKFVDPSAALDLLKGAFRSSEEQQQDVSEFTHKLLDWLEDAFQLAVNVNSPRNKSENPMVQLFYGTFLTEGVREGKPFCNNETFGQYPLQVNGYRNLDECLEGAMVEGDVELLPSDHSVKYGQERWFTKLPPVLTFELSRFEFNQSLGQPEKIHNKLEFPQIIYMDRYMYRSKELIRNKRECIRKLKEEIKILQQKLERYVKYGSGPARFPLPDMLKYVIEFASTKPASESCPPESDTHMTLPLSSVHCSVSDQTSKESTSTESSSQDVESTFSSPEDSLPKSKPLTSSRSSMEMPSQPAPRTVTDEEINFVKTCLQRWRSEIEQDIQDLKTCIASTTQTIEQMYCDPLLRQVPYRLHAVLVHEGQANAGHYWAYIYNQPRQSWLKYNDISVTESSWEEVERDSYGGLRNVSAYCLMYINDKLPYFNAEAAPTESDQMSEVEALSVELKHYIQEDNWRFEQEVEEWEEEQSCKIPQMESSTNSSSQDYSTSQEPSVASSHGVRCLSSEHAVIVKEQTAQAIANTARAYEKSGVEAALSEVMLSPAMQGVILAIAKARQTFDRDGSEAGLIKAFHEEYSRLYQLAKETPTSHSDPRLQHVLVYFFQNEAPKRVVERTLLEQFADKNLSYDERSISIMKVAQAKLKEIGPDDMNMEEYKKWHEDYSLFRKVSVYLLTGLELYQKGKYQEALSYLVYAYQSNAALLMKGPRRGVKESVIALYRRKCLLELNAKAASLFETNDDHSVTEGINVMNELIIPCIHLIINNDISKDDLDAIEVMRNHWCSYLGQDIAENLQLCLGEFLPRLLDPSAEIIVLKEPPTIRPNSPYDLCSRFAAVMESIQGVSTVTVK
UniProt Q96RU3: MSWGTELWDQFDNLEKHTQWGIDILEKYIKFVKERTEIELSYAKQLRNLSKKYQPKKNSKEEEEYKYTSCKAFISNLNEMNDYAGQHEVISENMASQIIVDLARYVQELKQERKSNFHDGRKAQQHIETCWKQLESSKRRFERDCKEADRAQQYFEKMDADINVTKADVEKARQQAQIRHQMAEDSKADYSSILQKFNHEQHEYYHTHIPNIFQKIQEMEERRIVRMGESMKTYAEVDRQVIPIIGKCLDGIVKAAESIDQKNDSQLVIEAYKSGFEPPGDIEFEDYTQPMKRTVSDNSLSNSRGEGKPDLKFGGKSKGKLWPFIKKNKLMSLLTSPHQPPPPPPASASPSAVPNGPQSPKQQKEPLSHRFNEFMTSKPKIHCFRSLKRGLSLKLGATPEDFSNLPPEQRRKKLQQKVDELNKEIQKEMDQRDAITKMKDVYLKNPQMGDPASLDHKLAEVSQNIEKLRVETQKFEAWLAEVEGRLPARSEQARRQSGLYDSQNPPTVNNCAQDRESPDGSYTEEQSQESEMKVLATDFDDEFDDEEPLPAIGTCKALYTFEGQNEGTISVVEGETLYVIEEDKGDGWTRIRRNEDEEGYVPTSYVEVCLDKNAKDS
UniProt Q96RN5: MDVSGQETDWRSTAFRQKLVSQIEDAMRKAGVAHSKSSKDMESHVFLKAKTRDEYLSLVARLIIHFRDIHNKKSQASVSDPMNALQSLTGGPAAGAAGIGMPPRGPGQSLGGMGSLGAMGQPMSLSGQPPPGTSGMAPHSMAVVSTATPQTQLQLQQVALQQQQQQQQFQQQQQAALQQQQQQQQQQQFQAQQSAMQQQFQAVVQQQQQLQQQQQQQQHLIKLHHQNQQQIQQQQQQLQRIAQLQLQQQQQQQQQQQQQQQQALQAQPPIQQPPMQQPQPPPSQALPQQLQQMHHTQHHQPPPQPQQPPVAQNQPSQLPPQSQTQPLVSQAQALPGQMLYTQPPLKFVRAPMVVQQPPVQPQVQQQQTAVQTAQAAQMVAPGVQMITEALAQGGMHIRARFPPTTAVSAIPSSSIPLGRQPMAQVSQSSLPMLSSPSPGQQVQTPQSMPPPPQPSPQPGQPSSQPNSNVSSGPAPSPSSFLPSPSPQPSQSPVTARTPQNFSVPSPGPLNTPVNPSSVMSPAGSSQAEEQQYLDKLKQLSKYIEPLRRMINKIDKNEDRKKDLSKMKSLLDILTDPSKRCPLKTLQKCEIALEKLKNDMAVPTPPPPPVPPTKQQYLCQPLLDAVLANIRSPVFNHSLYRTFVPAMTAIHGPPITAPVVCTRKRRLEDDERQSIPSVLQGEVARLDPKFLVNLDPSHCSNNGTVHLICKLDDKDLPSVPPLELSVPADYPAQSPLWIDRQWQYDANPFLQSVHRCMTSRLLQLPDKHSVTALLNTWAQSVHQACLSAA
UniProt Q96RS6: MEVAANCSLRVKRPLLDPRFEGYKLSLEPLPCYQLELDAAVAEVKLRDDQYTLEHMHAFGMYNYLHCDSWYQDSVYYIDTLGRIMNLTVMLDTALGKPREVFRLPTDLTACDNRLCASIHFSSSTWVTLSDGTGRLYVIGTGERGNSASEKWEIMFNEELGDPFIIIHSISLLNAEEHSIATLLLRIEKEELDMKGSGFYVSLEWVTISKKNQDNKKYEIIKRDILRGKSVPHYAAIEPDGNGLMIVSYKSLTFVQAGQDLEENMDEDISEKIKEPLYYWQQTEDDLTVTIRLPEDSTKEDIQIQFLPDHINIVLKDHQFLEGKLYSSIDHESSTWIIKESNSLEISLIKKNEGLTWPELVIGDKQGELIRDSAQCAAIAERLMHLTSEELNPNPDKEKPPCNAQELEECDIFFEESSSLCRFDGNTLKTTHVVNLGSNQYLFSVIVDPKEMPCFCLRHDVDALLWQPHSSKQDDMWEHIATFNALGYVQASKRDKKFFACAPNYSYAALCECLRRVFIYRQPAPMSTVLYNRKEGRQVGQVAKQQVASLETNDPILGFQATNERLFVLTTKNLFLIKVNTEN
UniProt Q96HP0: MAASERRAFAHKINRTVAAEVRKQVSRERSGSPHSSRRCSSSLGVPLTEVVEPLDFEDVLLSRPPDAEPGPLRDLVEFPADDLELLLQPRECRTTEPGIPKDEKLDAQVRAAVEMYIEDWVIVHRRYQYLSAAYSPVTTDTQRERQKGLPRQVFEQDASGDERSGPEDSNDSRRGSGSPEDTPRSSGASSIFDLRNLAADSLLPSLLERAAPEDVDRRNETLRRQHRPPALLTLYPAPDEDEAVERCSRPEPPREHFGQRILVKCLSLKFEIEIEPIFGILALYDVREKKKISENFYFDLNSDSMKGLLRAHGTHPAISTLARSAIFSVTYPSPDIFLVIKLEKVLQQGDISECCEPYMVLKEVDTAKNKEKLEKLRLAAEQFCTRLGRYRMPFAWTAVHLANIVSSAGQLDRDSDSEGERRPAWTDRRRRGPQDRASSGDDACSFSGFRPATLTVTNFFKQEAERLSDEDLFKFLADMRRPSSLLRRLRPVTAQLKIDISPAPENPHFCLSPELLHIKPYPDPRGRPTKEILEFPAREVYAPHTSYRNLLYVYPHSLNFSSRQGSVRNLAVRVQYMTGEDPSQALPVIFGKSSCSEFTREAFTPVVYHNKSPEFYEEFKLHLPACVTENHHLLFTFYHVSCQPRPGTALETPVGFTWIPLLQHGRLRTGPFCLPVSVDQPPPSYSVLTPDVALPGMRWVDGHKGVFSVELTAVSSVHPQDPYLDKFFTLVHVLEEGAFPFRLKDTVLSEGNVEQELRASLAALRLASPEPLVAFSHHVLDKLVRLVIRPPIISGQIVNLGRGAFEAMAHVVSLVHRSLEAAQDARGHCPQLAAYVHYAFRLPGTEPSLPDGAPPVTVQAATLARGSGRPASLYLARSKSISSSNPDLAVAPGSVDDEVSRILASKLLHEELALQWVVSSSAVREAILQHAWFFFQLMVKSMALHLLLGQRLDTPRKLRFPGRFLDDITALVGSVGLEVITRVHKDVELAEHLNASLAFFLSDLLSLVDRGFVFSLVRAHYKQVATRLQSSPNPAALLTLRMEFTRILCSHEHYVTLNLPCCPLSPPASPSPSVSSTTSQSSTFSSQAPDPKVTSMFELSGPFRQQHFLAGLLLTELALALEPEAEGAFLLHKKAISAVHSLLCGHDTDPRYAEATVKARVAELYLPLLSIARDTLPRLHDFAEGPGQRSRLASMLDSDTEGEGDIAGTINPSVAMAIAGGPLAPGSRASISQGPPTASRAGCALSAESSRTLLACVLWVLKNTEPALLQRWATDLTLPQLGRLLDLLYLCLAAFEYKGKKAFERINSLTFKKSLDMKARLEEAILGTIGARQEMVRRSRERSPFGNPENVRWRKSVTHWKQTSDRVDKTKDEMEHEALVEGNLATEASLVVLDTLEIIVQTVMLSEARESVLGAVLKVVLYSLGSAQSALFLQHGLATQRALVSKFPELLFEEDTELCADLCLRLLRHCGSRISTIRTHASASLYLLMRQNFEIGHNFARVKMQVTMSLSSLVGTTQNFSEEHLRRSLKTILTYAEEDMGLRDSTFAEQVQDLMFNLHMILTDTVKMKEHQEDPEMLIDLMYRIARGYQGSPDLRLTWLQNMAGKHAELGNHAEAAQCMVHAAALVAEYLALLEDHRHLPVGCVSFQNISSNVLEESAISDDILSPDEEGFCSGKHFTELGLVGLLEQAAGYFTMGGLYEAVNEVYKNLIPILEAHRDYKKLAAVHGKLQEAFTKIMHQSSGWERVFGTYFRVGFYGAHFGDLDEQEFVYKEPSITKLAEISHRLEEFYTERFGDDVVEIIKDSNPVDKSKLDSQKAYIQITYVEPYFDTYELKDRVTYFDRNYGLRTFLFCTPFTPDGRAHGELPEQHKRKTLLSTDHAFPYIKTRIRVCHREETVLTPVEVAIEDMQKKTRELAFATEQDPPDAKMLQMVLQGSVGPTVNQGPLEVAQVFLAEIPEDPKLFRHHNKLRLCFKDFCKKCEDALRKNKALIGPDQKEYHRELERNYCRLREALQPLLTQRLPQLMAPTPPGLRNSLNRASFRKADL

Compound: COC(=O)/C=C/c1ccccc1 [methyl cinnamate]
Assay: log2 ratio of iodoacetamide-alkyne labeling of the cysteine site, DMSO over compound (competition); higher = stronger covalent engagement of the cysteine by the compound, active = 1 or more
Conditions: 500 µM; treatment time 1 h; system: HEK293T cell lysate
How it was run: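 For each cysteine, the log2 competition ratio is mean control-channel reporter intensity over mean compound-channel reporter intensity. HEK293T lysate (2 mg/mL) was exposed to vehicle or electrophile (500 µM, 1 h, ambient temperature), labelled with iodoacetamide alkyne (1 h), clicked to sCIP-TMT reagents, digested overnight with trypsin at 37 °C, streptavidin-enriched and analysed by Orbitrap Eclipse LC-MS/MS with FAIMS and FragPipe. Cysteines quantified in only one of three replicates, each with duplicate channels, were excluded.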

log2 ratio of iodoacetamide-alkyne labeling, inactive:
CPNE1 C53 (UniProt Q99829) 0.157, DOK1 C115 (UniProt Q99704) -0.0836, VCPIP1 C160 (UniProt Q96JH7) 0.376, SEC22A C111 (UniProt Q96IW7) -0.0422, POP1 C745 (UniProt Q99575) 0.298, MCCC1 C509 (UniProt Q96RQ3) -0.102, NSUN5 C308 (UniProt Q96P11) 0.142, USP28 C1058 (UniProt Q96RU2) 0.357, KIF2C C154 (UniProt Q99661) 0.115, FNBP1 C609 (UniProt Q96RU3) 0.0449, POP1 C530 (UniProt Q99575) 0.4, MED15 C618 (UniProt Q96RN5) 0.0144, MYBBP1A C890 (UniProt Q9BQG0) 0.0293, NUDCD1 C32 (UniProt Q96RS6) 0.24, DOCK6 C1853 (UniProt Q96HP0) 0.165, DDX50 C417 (UniProt Q9BQ39) 0.298
